Source: patent US5153352A, “Process for preparation of intermediates of carbocyclic nucleoside analogs” (priority 1990, dated 1992)
Converted amounts (≈) assume the structure as drawn. “And” between values parts separate entries of the source, which are not always exact repeats. Equal values may be shown once. At least one read-out could not be matched to a standard name with certainty.

How the values were obtained:
[1] = system: Herpes simplex type 2 (HSV-2) strain MS; assay: CPE-inhibition assay, HSV-2 strain MS in Vero cells; conditions: HSV-2 (MS); for VR (Virus Rating): >1.0 definite, 0.5-0.9 marginal to moderate, <0.5 no significant activity
[2] = system: Herpes simplex type 1 (HSV-1) strain E-377; assay: CPE-inhibition assay, HSV-1 strain E-377 in Vero cells; conditions: HSV-1 (E-377); for VR (Virus Rating): >1.0 definite, 0.5-0.9 marginal to moderate, <0.5 no significant activity

Row | SMILES | VR (Virus Rating) ([1]; listed as 1.5H) | ID50 (minimum drug concentration that inhibited the CPE by 50%) ([1]; listed as 1.5H) | VR (Virus Rating) ([2]; listed as 1.5H) | ID50 (minimum drug concentration that inhibited the CPE by 50%) ([2]; listed as 1.5H) | ID50 (minimum drug concentration that inhibited the CPE by 50%) [1] | VR (Virus Rating) [1] | ID50 (minimum drug concentration that inhibited the CPE by 50%) [2] | VR (Virus Rating) [2]
1 | Nc1nc(Cl)c2ncn(C3CC(CO)C3CO)c2n1 (stereo not drawn) [Example 1H, 3-(2'-Amino-6'-chloro-9'H-purin-9'-yl)-1,2-bis(hydroxymethyl)cyclobutane] | 0.6 and 0.5 | 217 µg/mL (≈ 765 µM) | 1.4 | 89 µg/mL (≈ 314 µM) | – | – | – | –
2 | Nc1nc2c(ncn2C2CC(CO)C2CO)c(=O)[nH]1 (stereo not drawn) [Example 1I, 9-(2',3'-Bis(hydroxymethyl)cyclobutyl)guanine] | – | – | – | – | 10.6 µg/mL (≈ 40 µM) | 4.1 and 3.4 | 2.5 µg/mL (≈ 9.42 µM) | 5.7 and 5.1
3 | Nc1ncnc2c1ncn2C1CC(CO)C1CO (stereo not drawn) [Example 4C, 9-(2',3'-Bis(hydroxymethyl)cyclobutyl)adenine] | – | – | – | – | – | 1.8 and 0.9 | – | –
